Results from PubChem BioAssay AID463183 (Sanford-Burnham Center for Chemical Genomics, 2010).
Some of the results follow. The main result of the screen is listed elsewhere. These columns were measured beside it and carry no call. Most of these compounds were active or inconclusive in the main read-out, so they are no random draw.

Assay: hepatocyte lipid droplet accumulation inhibitors, confirmation, imaging, AML12 mouse hepatocytes, single concentration, high-content (AID 463183);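 further: cells counted after overnight compound exposure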
Conditions: BODIPY lipid droplet imaging, measured here: cell count, cytotoxicity, at 5.2 µM, droplets induced with 100 µM oleic acid

**Q.** Which cell count does the source give for `COc1ccc(CCNC(=O)CCc2cn(C)c3ccccc23)c(OC)c1OC` here?
**A.** The cell count was 1550 cells.

**Q.** With `Cc1nc(NC(=O)C2CC2)sc1C(=O)N(C)C` as the compound, how does the cell count read?
**A.** The cell count was 1650 cells.

**Q.** Which cell count does the source give for `CC(C)Oc1ccccc1/C=N/Nc1ccccc1[N+](=O)[O-]` here?
**A.** The cell count was 1550 cells.

**Q.** With `COc1ccc(-c2csc(NC(=O)c3ccc(OCC(=O)N4CCOCC4)c(OC)c3)n2)cc1OC` as the compound, how does the cell count read?
**A.** The cell count was 1560 cells.

**Q.** Which cell count does the source give for `COc1ccc(N=C2C(=Nc3ccc(OC)cc3)N(c3ccc(OC)cc3)C(=S)N2C(=O)c2ccc(OC)cc2)cc1` here?
**A.** The cell count was 1580 cells.

**Q.** For `CCCc1cc(N2CCOCC2)n2nc(C)c(-c3ccccc3)c2n1`, which cell count is on record?
**A.** The cell count was 1470 cells.

**Q.** For `Cc1oc2c(cc(NS(=O)(=O)c3cccs3)c3ccccc32)c1C(=O)OC(C)C`, which cell count is on record?
**A.** Its cell count is 1590 cells.

**Q.** For `CC(=O)Nc1ccc(-c2csc(NC(=O)Cc3cccc(F)c3)n2)cc1`, which cell count is on record?
**A.** Its cell count is 1680 cells.

**Q.** For `O=C(CCNC(=O)C1CCN(S(=O)(=O)c2ccccc2)CC1)NCCc1cccc(F)c1`, which cell count is on record?
**A.** Its cell count is 1640 cells.

**Q.** With `COc1ccc(S(=O)(=O)N2CCOCC2)cc1NC(=O)c1ccccc1C` as the compound, how does the cell count read?
**A.** The cell count was 1620 cells.

**Q.** For `CCCCCCCNC(=O)C1(CC2CC(c3ccc(Cl)cc3)=NO2)CCN(C(=O)c2cc(OCC)c(OCC)c(OCC)c2)CC1` (centres undefined), which cell count is on record?
**A.** Its cell count is 1550 cells.

**Q.** With `CC1CC(C)CN(C(=O)CSCC(=O)Nc2nc(-c3cccs3)cs2)C1` (centres undefined) as the compound, how does the cell count read?
**A.** The cell count was 1540 cells.

**Q.** For `CCOC(=O)c1ccc(NC(=O)CSc2nc3c(c(=O)n2-c2ccccc2OC)SCC3)cc1`, which cell count is on record?
**A.** Its cell count is 1680 cells.

**Q.** With `COc1ccc(NC(=O)COC(=O)/C=C/C(=O)OCC(=O)Nc2ccc(OC)c(Cl)c2)cc1Cl` as the compound, how does the cell count read?
**A.** Its cell count is 1520 cells.

**Q.** With `CN(C)c1ccc(NC2=C([N+](=O)[O-])CS(=O)(=O)C2)cc1` as the compound, how does the cell count read?
**A.** Its cell count is 1550 cells.

**Q.** For `O=C(CCC(=O)c1ccc(F)cc1)Nc1cccc(S(=O)(=O)Nc2cccc(Cl)c2)c1`, which cell count is on record?
**A.** The cell count was 1610 cells.

**Q.** Which cell count does the source give for `C/C(N)=C(/C#N)C(=O)CSc1nnc(Nc2cccc(C)c2)s1` here?
**A.** The cell count was 1630 cells.

**Q.** For `O=C(c1nn2c(C(F)(F)F)cc(-c3cccs3)nc2c1Br)N1CCCc2ccccc21`, which cell count is on record?
**A.** Its cell count is 1290 cells.

**Q.** Which cell count does the source give for `Cc1ccc(-n2nc3c(=O)n(CC(=O)NC(C)CCc4ccccc4)nc(C)c3c2C)cc1` (centres undefined) here?
**A.** The cell count was 1600 cells.

**Q.** With `CCOc1ccc(CCNC(=O)CS(=O)Cc2nc(-c3ccccc3C)oc2C)cc1OCC` (centres undefined) as the compound, how does the cell count read?
**A.** Its cell count is 1560 cells.

**Q.** With `Cc1cccc(N(Cc2cc(=O)[nH]c3ccccc23)C(=O)CCl)c1` as the compound, how does the cell count read?
**A.** The cell count was 1580 cells.

**Q.** For `COc1cc2ncnc(NCc3cccs3)c2cc1OC`, which cell count is on record?
**A.** The cell count was 940 cells.

**Q.** With `CCN(CC)c1ccc(NC(=O)CCc2nnc3ccc(N4CCCC4)nn23)c(C)c1` as the compound, how does the cell count read?
**A.** The cell count was 1670 cells.

**Q.** For `CCN(CC(=O)Nc1c(F)cccc1F)C(=O)CCCc1c[nH]c2ccccc12`, which cell count is on record?
**A.** The cell count was 1590 cells.

**Q.** Which cell count does the source give for `CCc1cc(C(=O)N2CCc3c([nH]c4ccccc34)C2c2ccc(OC)cc2F)no1` (centres undefined) here?
**A.** Its cell count is 1570 cells.

**Q.** For `COc1ccc2nc(N=Nc3ccc(O)c4ccccc34)sc2c1`, which cell count is on record?
**A.** Its cell count is 1300 cells.

**Q.** With `CC(C)Oc1ccc(C(=O)OC(C)C(=O)Nc2nc(-c3cccc([N+](=O)[O-])c3)cs2)cc1` (centres undefined) as the compound, how does the cell count read?
**A.** The cell count was 1530 cells.

**Q.** With `O=C(COC(=O)COc1ccc(Cl)cc1Cl)Nc1cccnc1Cl` as the compound, how does the cell count read?
**A.** Its cell count is 1650 cells.

**Q.** With `COc1ccc(-c2cc(C(F)(F)F)nc(SCCC(=O)NCc3ccccc3)n2)cc1` as the compound, how does the cell count read?
**A.** Its cell count is 1600 cells.

**Q.** Which cell count does the source give for `COc1nccnc1NS(=O)(=O)c1ccc(NCc2cc(Br)ccc2O)cc1` here?
**A.** Its cell count is 1610 cells.

**Q.** With `COc1ccc(Cl)cc1NC(=O)CN1C(=O)NC2(CCCC2)C1=O` as the compound, how does the cell count read?
**A.** The cell count was 1560 cells.

**Q.** Which cell count does the source give for `CCOC(=O)c1cc(NC(=O)N(C)C2CCCCC2)c(C)nc1C` here?
**A.** The cell count was 1630 cells.

**Q.** For `CCCC1(c2ccccc2)NC(=O)N(CC(=O)Nc2cc(C)ccc2OC)C1=O` (centres undefined), which cell count is on record?
**A.** Its cell count is 1610 cells.

**Q.** Which cell count does the source give for `Nc1nc(-c2ccccc2)c(N=Nc2ccccc2Cl)s1` here?
**A.** The cell count was 1590 cells.

**Q.** Which cell count does the source give for `Cc1ccc(-n2nc3c(=O)n(CC(=O)NCCCc4ccccc4)nc(C)c3c2C)cc1` here?
**A.** The cell count was 1500 cells.

**Q.** Which cell count does the source give for `COc1ccc(C(C(=O)NC2CCCC2)N(CCC(C)C)C(=O)CCC(=O)Nc2cc(C)on2)cc1` (centres undefined) here?
**A.** Its cell count is 1580 cells.

**Q.** Which cell count does the source give for `CCc1ccc(NS(=O)(=O)c2cc3c(cc2C)n(C)c(=O)c(=O)n3C)cc1` here?
**A.** The cell count was 1600 cells.

**Q.** With `CCCCN1C(=O)/C(=C/C=C2\Oc3ccccc3N2CC)SC1=S` as the compound, how does the cell count read?
**A.** The cell count was 1610 cells.

**Q.** For `COc1ccc(C(C(=O)NC(C)(C)C)N(CCC(C)C)C(=O)CCC(=O)Nc2cc(C)on2)cc1` (centres undefined), which cell count is on record?
**A.** The cell count was 1600 cells.
